Reference: paper PMC3251568
These are yes or no findings as the source states them, for the method shown. In cells and extracts the contact can be indirect. Some entries that bind do so weakly or less than the wild type.

The chains behind the UniProt entries cited, without tags or fusion partners. Where a name states a change or a piece, a line headed by the entry shows the natural chain unless it says otherwise. A line that says so, or that is headed by a name, gives the form on record, which may keep a tag or linker.
UniProt P00519: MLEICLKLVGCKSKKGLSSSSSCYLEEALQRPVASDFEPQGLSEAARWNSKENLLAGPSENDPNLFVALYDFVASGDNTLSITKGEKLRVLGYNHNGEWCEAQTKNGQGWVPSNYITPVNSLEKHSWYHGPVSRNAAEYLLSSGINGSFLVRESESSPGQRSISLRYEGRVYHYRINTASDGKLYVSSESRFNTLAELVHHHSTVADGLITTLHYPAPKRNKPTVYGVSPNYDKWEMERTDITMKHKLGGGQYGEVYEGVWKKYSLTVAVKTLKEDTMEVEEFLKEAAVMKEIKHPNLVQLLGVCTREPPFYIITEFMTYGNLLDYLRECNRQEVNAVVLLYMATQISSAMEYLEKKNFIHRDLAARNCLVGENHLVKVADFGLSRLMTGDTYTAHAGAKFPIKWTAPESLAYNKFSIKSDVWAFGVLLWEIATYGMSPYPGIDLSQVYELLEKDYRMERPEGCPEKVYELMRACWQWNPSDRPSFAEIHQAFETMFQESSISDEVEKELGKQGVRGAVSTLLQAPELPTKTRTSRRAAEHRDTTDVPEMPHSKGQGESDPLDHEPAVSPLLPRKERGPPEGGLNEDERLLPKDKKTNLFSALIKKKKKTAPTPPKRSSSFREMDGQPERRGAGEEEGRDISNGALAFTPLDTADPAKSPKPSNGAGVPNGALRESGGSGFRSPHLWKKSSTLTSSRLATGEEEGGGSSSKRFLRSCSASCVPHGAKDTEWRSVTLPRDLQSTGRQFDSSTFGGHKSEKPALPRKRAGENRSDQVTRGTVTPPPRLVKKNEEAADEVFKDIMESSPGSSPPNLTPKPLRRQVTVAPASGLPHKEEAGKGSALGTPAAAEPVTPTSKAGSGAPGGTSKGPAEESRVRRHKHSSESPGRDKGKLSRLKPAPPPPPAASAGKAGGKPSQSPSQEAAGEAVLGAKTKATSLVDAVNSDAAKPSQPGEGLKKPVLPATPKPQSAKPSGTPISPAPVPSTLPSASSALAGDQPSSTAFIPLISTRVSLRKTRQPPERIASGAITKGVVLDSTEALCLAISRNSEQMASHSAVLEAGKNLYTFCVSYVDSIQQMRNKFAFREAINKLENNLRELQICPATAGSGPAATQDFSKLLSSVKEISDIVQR
Myc-tagged QI-AA mutant of c-Abl (P00519, form named): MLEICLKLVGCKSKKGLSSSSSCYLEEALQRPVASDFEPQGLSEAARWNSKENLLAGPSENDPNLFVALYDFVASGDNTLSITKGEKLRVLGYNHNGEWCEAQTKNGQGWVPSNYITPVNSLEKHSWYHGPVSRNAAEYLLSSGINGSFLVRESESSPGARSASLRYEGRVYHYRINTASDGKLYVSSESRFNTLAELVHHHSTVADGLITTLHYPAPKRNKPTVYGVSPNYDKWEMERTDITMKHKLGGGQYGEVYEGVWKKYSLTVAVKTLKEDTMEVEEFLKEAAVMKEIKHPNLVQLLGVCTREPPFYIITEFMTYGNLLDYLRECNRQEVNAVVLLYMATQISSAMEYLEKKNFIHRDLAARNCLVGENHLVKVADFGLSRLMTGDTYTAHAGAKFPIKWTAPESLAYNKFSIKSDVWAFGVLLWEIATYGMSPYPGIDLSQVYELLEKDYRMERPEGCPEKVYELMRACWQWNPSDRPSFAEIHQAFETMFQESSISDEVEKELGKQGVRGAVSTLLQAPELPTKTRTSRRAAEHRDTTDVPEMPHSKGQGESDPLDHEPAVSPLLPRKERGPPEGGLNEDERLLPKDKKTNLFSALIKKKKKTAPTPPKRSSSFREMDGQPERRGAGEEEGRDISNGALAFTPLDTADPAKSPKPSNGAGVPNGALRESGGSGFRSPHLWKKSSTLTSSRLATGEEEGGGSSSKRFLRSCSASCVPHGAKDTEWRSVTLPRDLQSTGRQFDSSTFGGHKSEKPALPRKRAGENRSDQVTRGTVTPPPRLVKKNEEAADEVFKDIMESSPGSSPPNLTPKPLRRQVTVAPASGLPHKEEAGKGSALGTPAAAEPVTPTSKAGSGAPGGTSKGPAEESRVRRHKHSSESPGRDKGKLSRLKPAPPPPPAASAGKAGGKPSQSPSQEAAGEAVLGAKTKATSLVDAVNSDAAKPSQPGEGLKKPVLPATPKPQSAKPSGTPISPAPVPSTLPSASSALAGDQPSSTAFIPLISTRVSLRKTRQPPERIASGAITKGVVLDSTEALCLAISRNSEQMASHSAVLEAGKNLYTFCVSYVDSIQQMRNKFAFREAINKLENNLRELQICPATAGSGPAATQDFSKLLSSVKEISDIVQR
UniProt P12004: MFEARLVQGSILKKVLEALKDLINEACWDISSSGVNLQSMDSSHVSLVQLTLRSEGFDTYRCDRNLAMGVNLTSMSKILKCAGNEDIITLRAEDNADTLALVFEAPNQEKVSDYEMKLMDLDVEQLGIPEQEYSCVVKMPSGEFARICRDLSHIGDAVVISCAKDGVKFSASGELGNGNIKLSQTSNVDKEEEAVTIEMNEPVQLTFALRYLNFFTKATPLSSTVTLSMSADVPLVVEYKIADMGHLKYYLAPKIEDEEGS

Experiments:
[1] = biological target: non-receptor tyrosine kinase c-Abl, endogenous (human (endogenous in BT474, MDA-MB-231, HEK293T)) (UniProt P00519); experiment: co-IP; HEK293T cells transfected with FLAG-tagged wild-type or Y211F PCNA; endogenous c-Abl precipitated with anti-c-Abl antibody; co-precipitated FLAG-PCNA by western analysis
[2] = biological target: non-receptor tyrosine kinase c-Abl, endogenous (human (endogenous in BT474, MDA-MB-231, HEK293T)) (UniProt P00519); experiment: co-IP; endogenous proteins in lysates of BT474 and MDA-MB-231 cells (NETN buffer: 150 mM NaCl, 20 mM Tris pH 8.0, 0.5% NP-40); IP with anti-c-Abl antibody at 4°C overnight, protein G agarose, blot for PCNA; also cells with or without ionizing irradiation (10 Gy, 2 h), which enhanced the interaction
[3] = biological target: Myc-tagged QI-AA mutant of c-Abl (UniProt P00519); experiment: co-IP; HEK293T cells transfected with Myc-tagged wild-type or QI-AA mutant c-Abl or control vector; IP with anti-Myc antibody; co-precipitated endogenous PCNA by western analysis with anti-PCNA antibody
[4] = biological target: Myc-tagged wild-type c-Abl (UniProt P00519); experiment: as above

Row | Substance | binding [1] | binding [2] | binding [3] | binding [4]
1 | FLAG-tagged wild-type PCNA (from UniProt P12004 1-261) | binds | – | – | –
2 | proliferating cell nuclear antigen (PCNA), endogenous (from UniProt P12004 1-261) | – | binds | binds | binds
